From PubChem BioAssay AID588590 (National Center for Advancing Translational Sciences (NCATS), 2011)
About 4,000 (1%) of roughly 390,000 compounds were called active. Inconclusive means that the source gave no clear call. Such entries were picked first, then a sample of the others. The call rests on the fitted dose curve; in most records, active means well fitted inhibition curve with a large enough effect; inconclusive means small, poorly fitted or top-dose-only effect, or another doubt; inactive means no such curve, though single readings can be large or run the other way. Potencies beside an inconclusive call are fits to weak or partial responses and may not hold up. Some structures have more than one record in an assay (separate samples or runs), and their calls can disagree.
Potency means the concentration at half of the fitted maximal effect.

The chains behind the UniProt entries cited, without tags or fusion partners. Where a name states a change or a piece, a line headed by the entry shows the natural chain unless it says otherwise.
UniProt Q9UNA4: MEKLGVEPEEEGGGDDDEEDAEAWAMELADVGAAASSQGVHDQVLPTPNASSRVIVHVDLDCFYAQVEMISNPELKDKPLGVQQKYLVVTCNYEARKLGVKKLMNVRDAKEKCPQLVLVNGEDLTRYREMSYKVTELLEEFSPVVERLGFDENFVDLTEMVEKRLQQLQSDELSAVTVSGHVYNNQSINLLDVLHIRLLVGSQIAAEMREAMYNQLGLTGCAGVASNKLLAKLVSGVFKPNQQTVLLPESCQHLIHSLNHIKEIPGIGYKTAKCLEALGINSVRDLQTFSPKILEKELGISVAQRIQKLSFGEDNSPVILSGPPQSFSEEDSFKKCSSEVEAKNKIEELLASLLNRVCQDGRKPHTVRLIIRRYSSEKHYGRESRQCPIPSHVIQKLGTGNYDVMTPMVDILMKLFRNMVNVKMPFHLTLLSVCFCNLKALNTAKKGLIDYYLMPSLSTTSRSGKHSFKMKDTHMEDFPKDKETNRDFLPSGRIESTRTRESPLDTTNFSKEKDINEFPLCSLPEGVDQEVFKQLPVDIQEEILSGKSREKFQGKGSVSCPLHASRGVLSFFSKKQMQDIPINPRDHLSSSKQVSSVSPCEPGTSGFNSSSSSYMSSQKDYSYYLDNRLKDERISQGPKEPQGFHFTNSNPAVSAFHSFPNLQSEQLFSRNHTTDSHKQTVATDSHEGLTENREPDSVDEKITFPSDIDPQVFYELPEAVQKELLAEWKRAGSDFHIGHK

The compounds below were run against DNA polymerase iota (Homo sapiens) (UniProt Q9UNA4) (assay: qHTS for Inhibitors of Polymerase Iota). Details: Pol iota fluorescent replication assay, 10 min; series mostly up to 115 µM.
Procedure, shortened: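 Pol iota at 10 nM preincubated 15 min with compounds at room temperature; reaction started with fluorescent substrate, 50 nM final. Fluorescence read kinetically at 0 and 10 min; buffer-only wells as negative control.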
For `C=CCn1c(COc2ccccc2)nnc1SCC(=O)N/N=C/c1ccc(C)cc1`, the Potency was inconclusive: 17.8 µM [inhibitor, partial curve, poor fit]. `Cc1ccc(CNC(=O)CN2C(=O)COc3ccc(S(=O)(=O)Nc4ccccc4)cc32)cc1` was tested, and the Potency was inconclusive: 39.8 µM [inhibitor, single point]. For `COC(=O)C1=C(C)NC(=O)/C1=C\c1cc(C)n(-c2cc(C)cc(C)c2)c1C`, the Potency was inconclusive: 39.8 µM [inhibitor, single point]. For `Cc1ccc(F)c(NC(=O)/C(C#N)=C(\O)c2ccc(C(C)(C)C)cc2)c1`, the Potency was inconclusive: 39.8 µM [inhibitor, partial curve]. For `COc1ccccc1CNC(=O)Cc1csc(NC(=O)Nc2ccccc2OC)n1`, the Potency was inconclusive: 63.1 µM [inhibitor, partial curve, poor fit]. In the case of `Cc1ccc(N=Cc2sc(O)c3ccccc23)c(C)c1`, the Potency is reported as inconclusive: 39.8 µM [inhibitor, single point]. For `CCOc1ccc(NC(=O)CN(C)Cc2cc(=O)n3c(-c4ccccc4)csc3n2)cc1OCC`, the Potency was inconclusive: 17.8 µM [inhibitor, partial curve, poor fit]. With `CCCCn1c(SCC(=O)Nc2cc(NC(=O)c3ccco3)ccc2C)nc2ccccc2c1=O` the Potency was inconclusive: 39.8 µM [inhibitor, single point]. In the case of `CC(C)Nc1nc(C#N)nc(NC(C)C)n1`, the Potency is reported as “inactive”. For `O=C(NC[C@@H]1CCCO1)c1cccc2c1C(=O)c1ccc(Cl)cc1S2(=O)=O`, the Potency was “inactive”. In the case of `COc1ccc(C2=NN(C(=O)c3ccccc3)C(c3ccccc3)C2)c(O)c1` (centres undefined), the Potency is reported as inconclusive: 100 µM [inhibitor, partial curve, poor fit]. In the case of `Cc1ccc(S(=O)(=O)N2CCOCC2)cc1NC(=O)CNCc1cccnc1`, the Potency is reported as inconclusive: 39.8 µM [inhibitor, single point]. For `Cc1n[nH]c(C)c1CCCCOc1ccccc1F`, the Potency was inconclusive: 20 µM [inhibitor, partial curve, poor fit]. With `CCC(NS(=O)(=O)c1ccc(C)cc1)C(=O)O` (centres undefined) the Potency was inconclusive: 17.8 µM [inhibitor, partial curve, poor fit]. With `N#CC1=C2SCN(c3ccccc3)CN2C(=O)CC1c1c(Cl)cccc1Cl` (centres undefined) the Potency was active: 89.1 µM. For `CCOC(=O)c1sc(=S)n(-c2ccccc2)c1NC(C)=O`, the Potency was inconclusive: 35.5 µM [inhibitor, partial curve, poor fit]. In the case of `COc1ccc(N2CSC3=C(C#N)C(c4cc(OC)c(OC)cc4OC)CC(=O)N3C2)c(OC)c1` (centres undefined), the Potency is reported as inconclusive: 39.8 µM [inhibitor, single point]. For `COc1cccc(/C(O)=C2/C(=O)C(=O)N(Cc3cccnc3)C2c2ccco2)c1` (centres undefined), the Potency was inconclusive: 39.8 µM [inhibitor, partial curve, poor fit]. For `CC1C(=O)C(C)C(c2cccs2)NC1c1cccs1` (centres undefined), the Potency was inconclusive: 39.8 µM [inhibitor, single point]. With `O=C(Nc1cccc(S(=O)(=O)N2CCCCC2)c1)c1ccc2ncsc2c1` the Potency was inconclusive: 8.91 µM [inhibitor, full curve, poor fit]. With `CNCc1ccccc1Sc1cc(O)ccc1O` the Potency was inconclusive: 1.58 µM [inhibitor, full curve, poor fit]. In the case of `COc1ccc2[nH]c3c(N4CCc5ccccc5C4)ncnc3c2c1`, the Potency is reported as inconclusive: 39.8 µM [inhibitor, single point]. For `CN(C)CCCNCC(=O)c1c(-c2ccccc2)n(C)c2ccccc12`, the Potency was inconclusive: 22.4 µM [inhibitor, full curve]. In the case of `CCCOc1ccc(/C(O)=C2/C(=O)C(=O)N(CCN(C)C)C2c2ccc(OC)c(OC)c2)cc1` (centres undefined), the Potency is reported as inconclusive: 39.8 µM [inhibitor, single point]. In the case of `CC1CCCN(C2=C(NS(=O)(=O)c3ccc(Cl)cc3)C(=O)c3ccccc3C2=O)C1` (centres undefined), the Potency is reported as inconclusive: 3.55 µM [inhibitor, full curve]. `O=[N+]([O-])c1ccccc1S(=O)(=O)Nc1ccc(-c2ccc(N3CCCC3)nn2)cc1` was tested, and the Potency was inconclusive: 11.2 µM [inhibitor, full curve, poor fit]. `COc1ccccc1C1CC(=O)Oc2cc(O)ccc21` (centres undefined) was tested, and the Potency was “inactive”. In the case of `COc1ccc2c(=O)c3ccccc3oc2c1`, the Potency is reported as “inactive”. `O=C(CN1CC(=O)Oc2ccccc21)OCC(=O)c1cccc(Br)c1` was tested, and the Potency was inconclusive: 3.55 µM [inhibitor, full curve, poor fit]. With `COc1ccc2c(c1)c(=Cc1ccc(N(C)C)cc1)c1cc(-c3ccccc3)[n+](C)n12` the Potency was active: 39.8 µM. `O=C(O)c1ccc(Nc2nc3ccc(Cl)cc3[nH]2)cc1` was tested, and the Potency was inconclusive: 25.1 µM [inhibitor, full curve, poor fit]. In the case of `NC(=O)[C@H]1CC2(CC(c3cccc(NC(=O)COc4ccc(Cl)cc4)c3)=NO2)CN1C(=O)C(c1ccccc1)c1ccccc1` (some centres undefined), the Potency is reported as inconclusive: 22.4 µM [inhibitor, single point]. `C[n+]1cccc2c(Br)ccc([O-])c21` was tested, and the Potency was inconclusive: 3.16 µM [inhibitor, full curve, poor fit]. For `COc1ccc(N2CC(C(=O)N[C@@H](CC(C)C)C(=O)NC3CCCCC3)CC2=O)cc1` (some centres undefined), the Potency was inconclusive: 89.1 µM [inhibitor, single point]. In the case of `CN(C)c1ccc(/C=C/c2ccc3cc(N)ccc3n2)cc1`, the Potency is reported as inconclusive: 89.1 µM [inhibitor, partial curve, poor fit]. With `c1ccc2c(Nc3nncs3)c3ccccc3nc2c1` the Potency was inconclusive: 100 µM [inhibitor, partial curve, poor fit]. For `O=C(O)C1Nc2c(O)cc(Cl)c([N+](=O)[O-])c2C2C=CCC12` (centres undefined), the Potency was inconclusive: 0.794 µM [inhibitor, full curve, poor fit]. In the case of `COc1cccc2sc3ccc(NCCC4CCCN4C)cc3c(=O)c12` (centres undefined), the Potency is reported as inconclusive: 44.7 µM [inhibitor, partial curve]. `Cc1ccc(C)c(Cn2c3ccccc3c3cnn(CC(=O)NC4CCC(C)CC4)c(=O)c32)c1` (centres undefined) was tested, and the Potency was inconclusive: 100 µM [inhibitor, single point].
